These are yes or no findings as the source states them, for the method shown. Binding seen in cells or lysates may run through a third protein. Some results given as binding are weak or reduced against the parent protein; the word gives no strength. Where a sequence is shown, tags or fusion partners need not be part of it.
Molecular target: T1, Flag tagged SHARP (aa 2770-3127) (UniProt Q96T58)
T1 sequence: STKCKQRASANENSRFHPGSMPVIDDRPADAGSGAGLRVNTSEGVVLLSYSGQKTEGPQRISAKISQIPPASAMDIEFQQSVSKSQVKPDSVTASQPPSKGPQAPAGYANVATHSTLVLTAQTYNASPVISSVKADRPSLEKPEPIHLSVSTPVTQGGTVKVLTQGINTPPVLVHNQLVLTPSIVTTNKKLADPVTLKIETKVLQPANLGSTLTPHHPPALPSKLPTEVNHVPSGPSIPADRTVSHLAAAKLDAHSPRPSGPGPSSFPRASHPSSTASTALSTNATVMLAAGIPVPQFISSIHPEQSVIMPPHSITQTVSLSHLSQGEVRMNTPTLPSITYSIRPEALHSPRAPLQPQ
Experiment: co-IP; HEK293 cells co-transfected with Halo-tagged RBPJ variant and Flag-tagged NICD or Flag-tagged SHARP (aa 2770-3127); lysed 24 h after transfection in CHAPS lysis buffer; lysate incubated with anti-Flag (M2) agarose beads overnight at 4 °C; six washes; SDS-PAGE and blot

Sequences of proteins named here, by UniProt entry; tags and fusion partners are left off. A change or cut given only in a name is not applied to a line headed by its entry. A line that says so, or that is headed by a name, gives the form on record, which may keep a tag or linker. Residues count along the entry.
HT-RBPJ-WT (wild-type RBPJ fused to an N-terminal HaloTag) (P31266, residues 53-474): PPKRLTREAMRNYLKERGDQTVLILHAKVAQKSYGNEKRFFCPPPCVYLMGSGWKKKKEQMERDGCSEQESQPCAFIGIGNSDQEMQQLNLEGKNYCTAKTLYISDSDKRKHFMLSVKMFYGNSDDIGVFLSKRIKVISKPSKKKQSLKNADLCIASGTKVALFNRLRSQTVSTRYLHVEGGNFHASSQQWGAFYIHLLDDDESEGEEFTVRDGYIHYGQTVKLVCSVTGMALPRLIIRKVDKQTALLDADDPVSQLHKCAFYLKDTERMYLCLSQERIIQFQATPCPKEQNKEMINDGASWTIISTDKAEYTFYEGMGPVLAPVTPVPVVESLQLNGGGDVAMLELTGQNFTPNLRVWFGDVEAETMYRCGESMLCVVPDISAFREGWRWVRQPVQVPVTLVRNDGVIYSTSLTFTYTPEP
HT-RBPJ-KRS/EHD (RBPJ K195E/R218H/S221D with N-terminal HaloTag) (P31266, form named): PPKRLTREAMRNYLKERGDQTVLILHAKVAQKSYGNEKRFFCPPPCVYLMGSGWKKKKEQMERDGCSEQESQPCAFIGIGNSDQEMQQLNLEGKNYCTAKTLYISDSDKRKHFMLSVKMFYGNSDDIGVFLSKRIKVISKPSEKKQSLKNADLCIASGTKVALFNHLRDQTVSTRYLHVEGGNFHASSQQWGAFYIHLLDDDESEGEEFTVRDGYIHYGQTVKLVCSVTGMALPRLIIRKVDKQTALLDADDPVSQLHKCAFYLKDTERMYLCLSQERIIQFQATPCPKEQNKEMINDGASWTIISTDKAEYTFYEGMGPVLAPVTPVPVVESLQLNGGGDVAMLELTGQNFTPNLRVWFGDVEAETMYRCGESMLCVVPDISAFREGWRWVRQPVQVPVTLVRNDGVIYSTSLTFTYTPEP

binding | Substance
binds | HT-RBPJ-KRS/EHD (RBPJ K195E/R218H/S221D with N-terminal HaloTag) (from UniProt P31266 53-474)
binds | HT-RBPJ-WT (wild-type RBPJ fused to an N-terminal HaloTag) (from UniProt P31266 53-474)

Reference: paper PMC11787368
